Assay results: publication PMC11362597

B1: NCF4 (protein, UniProt Q15080 1-339)
chain: MAVAQQLRAESDFEQLPDDVAISANIADIEEKRGFTSHFVFVIEVKTKGGSKYLIYRRYRQFHALQSKLEERFGPDSKSSALACTLPTLPAKVYVGVKQEIAEMRIPALNAYMKSLLSLPVWVLMDEDVRIFFYQSPYDSEQVPQALRRLRPRTRKVKSVSPQGNSVDRMAAPRAEALFDFTGNSKLELNFKAGDVIFLLSRINKDWLEGTVRGATGIFPLSFVKILKDFPEEDDPTNWLRCYYYEDTISTIKDIAVEEDLSSTPLLKDLLELTRREFQREDIALNYRDAEGDLVRLLSDEDVALMVRQARGLPSQKRLFPWKLHITQKDNYRVYNTMP
B2: YWHAH (protein, UniProt Q04917 1-246)
chain: MGDREQLLQRARLAEQAERYDDMASAMKAVTELNEPLSNEDRNLLSVAYKNVVGARRSSWRVISSIEQKTMADGNEKKLEKVKAYREKIEKELETVCNDVLSLLDKFLIKNCNDFQYESKVFYLKMKGDYYRYLAEVASGEKKNSVVEASEAAYKEAFEISKEQMQPTHPIRLGLALNFSVFYYEIQNAPEQACLLAKQAFDDAIAELDTLNEDSYKDSTLIMQLLRDNLTLWTSDQQDEEAGEGN
B3: PPM1F (protein, UniProt P49593 1-454)
chain: MSSGAPQKSSPMASGAEETPGFLDTLLQDFPALLNPEDPLPWKAPGTVLSQEEVEGELAELAMGFLGSRKAPPPLAAALAHEAVSQLLQTDLSEFRKLPREEEEEEEDDDEEEKAPVTLLDAQSLAQSFFNRLWEVAGQWQKQVPLAARASQRQWLVSIHAIRNTRRKMEDRHVSLPSFNQLFGLSDPVNRAYFAVFDGHGGVDAARYAAVHVHTNAARQPELPTDPEGALREAFRRTDQMFLRKAKRERLQSGTTGVCALIAGATLHVAWLGDSQVILVQQGQVVKLMEPHRPERQDEKARIEALGGFVSHMDCWRVNGTLAVSRAIGDVFQKPYVSGEADAASRALTGSEDYLLLACDGFFDVVPHQEVVGLVQSHLTRQQGSGLRVAEELVAAARERGSHDNITVMVVFLRDPQELLEGGNQGEGDPQAEGRRQDLPSSLPEPETQAPPRS
B4: ARAP1 (protein, UniProt Q96P48 1-1450)
chain: MAEAGDAALSVAEWLRALHLEQYTGLFEQHGLVWATECQGLSDTRLMDMGMLLPGHRRRILAGLLRAHTSPAPAPRPTPRPVPMKRHIFRSPPVPATPPEPLPTTTEDEGLPAAPPIPPRRSCLPPTCFTTPSTAAPDPVLPPLPAKRHLAELSVPPVPPRTGPPRLLVSLPTKEEESLLPSLSSPPQPQSEEPLSTLPQGPPQPPSPPPCPPEIPPKPVRLFPEFDDSDYDEVPEEGPGAPARVMTKKEEPPPSRVPRAVRVASLLSEGEELSGDDQGDEEEDDHAYEGVPNGGWHTSSLSLSLPSTIAAPHPMDGPPGGSTPVTPVIKAGWLDKNPPQGSYIYQKRWVRLDTDHLRYFDSNKDAYSKRFISVACISHVAAIGDQKFEVITNNRTFAFRAESDVERKEWMQALQQAMAEQRARARLSSAYLLGVPGSEQPDRAGSLELRGFKNKLYVAVVGDKVQLYKNLEEYHLGIGITFIDMSVGNVKEVDRRSFDLTTPYRIFSFSADSELEKEQWLEAMQGAIAEALSTSEVAERIWAAAPNRFCADCGAPQPDWASINLCVVICKRCAGEHRGLGAGVSKVRSLKMDRKVWTETLIELFLQLGNGAGNRFWAANVPPSEALQPSSSPSTRRCHLEAKYREGKYRRYHPLFGNQEELDKALCAAVTTTDLAETQALLGCGAGINCFSGDPEAPTPLALAEQAGQTLQMEFLRNNRTTEVPRLDSMKPLEKHYSVVLPTVSHSGFLYKTASAGKLLQDRRAREEFSRRWCVLGDGVLSYFENERAVTPNGEIRASEIVCLAVPPPDTHGFEHTFEVYTEGERLYLFGLESAEQAHEWVKCIAKAFVPPLAEDLLARDFERLGRLPYKAGLSLQRAQEGWFSLSGSELRAVFPEGPCEEPLQLRKLQELSIQGDSENQVLVLVERRRTLYIQGERRLDFMGWLGAIQKAAASMGDTLSEQQLGDSDIPVIVYRCVDYITQCGLTSEGIYRKCGQTSKTQRLLESLRQDARSVHLKEGEQHVDDVSSALKRFLRDLPDGLFTRAQRLTWLEASEIEDEEEKVSRYRELLVRLPPVNRATVKALISHLYCVQCFSDTNQMNVHNLAIVFGPTLFQTDGQDYKAGRVVEDLINHYVVVFSVDEEELRKQREEITAIVKMRVAGTASGTQHAGDFICTVYLEEKKAETEQHIKVPASMTAEELTLEILDRRNVGIREKDYWTCFEVNEREEAERPLHFAEKVLPILHGLGTDSHLVVKKHQAMEAMLLYLASRVGDTKHGMMKFREDRSLLGLGLPSGGFHDRYFILNSSCLRLYKEVRSQRPWSGAPETSHRPEKEWPIKSLKVYLGVKKKLRPPTCWGFTVVHETEKHEKQQWYLCCDTQMELREWFATFLFVQHDGLVWPSEPSRVSRAVPEVRLGSVSLIPLRGSENEMRRSVAAFTADPLSLLRNV
B5: CAPG (protein, UniProt P40121 1-348)
chain: MYTAIPQSGSPFPGSVQDPGLHVWRVEKLKPVPVAQENQGVFFSGDSYLVLHNGPEEVSHLHLWIGQQSSRDEQGACAVLAVHLNTLLGERPVQHREVQGNESDLFMSYFPRGLKYQEGGVESAFHKTSTGAPAAIKKLYQVKGKKNIRATERALNWDSFNTGDCFILDLGQNIFAWCGGKSNILERNKARDLALAIRDSERQGKAQVEIVTDGEEPAEMIQVLGPKPALKEGNPEEDLTADKANAQAAALYKVSDATGQMNLTKVADSSPFALELLISDDCFVLDNGLCGKIYIWKGRKANEKERQAALQVAEGFISRMQYAPNTQVEILPQGHESPIFKQFFKDWK
B6: ALOX5AP (protein, UniProt P20292 1-161)
chain: MDQETVGNVVLLAIVTLISVVQNGFFAHKVEHESRTQNGRSFQRTGTLAFERVYTANQNCVDAYPTFLAVLWSAGLLCSQVPAAFAGLMYLFVRQKYFVGYLGERTQSTPGYIFGKRIILFLFLMSVAGIFNYYLIFFFGSDFENYIKTISTTISPLLLIP
B7: MAP2K3 (protein, UniProt P46734 1-347)
chain: MESPASSQPASMPQSKGKSKRKKDLRISCMSKPPAPNPTPPRNLDSRTFITIGDRNFEVEADDLVTISELGRGAYGVVEKVRHAQSGTIMAVKRIRATVNSQEQKRLLMDLDINMRTVDCFYTVTFYGALFREGDVWICMELMDTSLDKFYRKVLDKNMTIPEDILGEIAVSIVRALEHLHSKLSVIHRDVKPSNVLINKEGHVKMCDFGISGYLVDSVAKTMDAGCKPYMAPERINPELNQKGYNVKSDVWSLGITMIEMAILRFPYESWGTPFQQLKQVVEEPSPQLPADRFSPEFVDFTAQCLRKNPAERMSYLELMEHPFFTLHKTKKTDIAAFVKEILGEDS
B8: ACSL1 (protein, UniProt P33121 1-698)
chain: MQAHELFRYFRMPELVDFRQYVRTLPTNTLMGFGAFAALTTFWYATRPKPLKPPCDLSMQSVEVAGSGGARRSALLDSDEPLVYFYDDVTTLYEGFQRGIQVSNNGPCLGSRKPDQPYEWLSYKQVAELSECIGSALIQKGFKTAPDQFIGIFAQNRPEWVIIEQGCFAYSMVIVPLYDTLGNEAITYIVNKAELSLVFVDKPEKAKLLLEGVENKLIPGLKIIVVMDAYGSELVERGQRCGVEVTSMKAMEDLGRANRRKPKPPAPEDLAVICFTSGTTGNPKGAMVTHRNIVSDCSAFVKATENTVNPCPDDTLISFLPLAHMFERVVECVMLCHGAKIGFFQGDIRLLMDDLKVLQPTVFPVVPRLLNRMFDRIFGQANTTLKRWLLDFASKRKEAELRSGIIRNNSLWDRLIFHKVQSSLGGRVRLMVTGAAPVSATVLTFLRAALGCQFYEGYGQTECTAGCCLTMPGDWTAGHVGAPMPCNLIKLVDVEEMNYMAAEGEGEVCVKGPNVFQGYLKDPAKTAEALDKDGWLHTGDIGKWLPNGTLKIIDRKKHIFKLAQGEYIAPEKIENIYMRSEPVAQVFVHGESLQAFLIAIVVPDVETLCSWAQKRGFEGSFEELCRNKDVKKAILEDMVRLGKDSGLKPFEQVKGITLHPELFSIDNGLLTPTMKAKRPELRNYFRSQIDDLYSTIKV

molecular target: GST-fused recombinant ARHGAP25 (human) (UniProt P42331); assay: affinity purification with mass spectrometry; GST-ARHGAP25 (control: GST) on glutathione agarose beads incubated with intact total lysate of human neutrophilic granulocytes, 45 min, 4 °C; washed thrice with PBST; eluted by boiling in Laemmli buffer; LC-MS/MS, label-free quantification; only the target purified

binding, binds:
B1
B2
B3
B4
B5
B6
B7
B8

molecular target: T1, endogenous ARHGAP25 (human (endogenous in neutrophilic granulocytes)) (UniProt P42331); assay: affinity purification with mass spectrometry; co-immunoprecipitation of endogenous ARHGAP25: magnetic beads coated with polyclonal ARHGAP25 antibody (control: rabbit IgG) incubated with intact total neutrophil lysate, 45 min, 4 °C; washed thrice with PBST; eluates measured by mass spectrometry
T1 sequence: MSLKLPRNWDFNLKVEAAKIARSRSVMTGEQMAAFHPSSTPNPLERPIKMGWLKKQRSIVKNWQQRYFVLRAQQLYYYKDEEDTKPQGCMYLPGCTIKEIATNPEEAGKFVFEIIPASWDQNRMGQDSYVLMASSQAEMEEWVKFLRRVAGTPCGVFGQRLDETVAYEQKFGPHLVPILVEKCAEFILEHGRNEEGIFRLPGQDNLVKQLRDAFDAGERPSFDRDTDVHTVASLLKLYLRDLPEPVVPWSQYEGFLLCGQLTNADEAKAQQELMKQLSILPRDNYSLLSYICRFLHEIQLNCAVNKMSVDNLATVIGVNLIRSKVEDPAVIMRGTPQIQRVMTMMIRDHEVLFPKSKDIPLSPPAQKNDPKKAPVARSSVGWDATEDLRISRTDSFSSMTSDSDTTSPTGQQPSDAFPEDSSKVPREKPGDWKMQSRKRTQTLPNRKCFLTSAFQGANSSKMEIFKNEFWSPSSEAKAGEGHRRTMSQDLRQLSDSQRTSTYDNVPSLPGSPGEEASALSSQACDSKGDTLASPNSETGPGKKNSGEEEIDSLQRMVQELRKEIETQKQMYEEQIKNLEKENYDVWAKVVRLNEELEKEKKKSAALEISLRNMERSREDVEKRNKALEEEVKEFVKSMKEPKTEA

binding, binds:
B1
B2
B3
B7
B8

Results are given in words; binding and its absence hold for the method and conditions named. Binding seen in cells or lysates may run through a third protein. These calls come from enrichment with a bait or labelling near it, and not all partners need be listed.
